Some results were stated once for a whole list of compounds, not compound by compound.
System: Peronospora parasitica
Test: In vivo comparative test on Peronospora parasitica (crucifer downy mildew)
Settings: dose of 500 ppm; cabbage plants sprayed 24 hours before contamination; grading 5 days after contamination vs control plants

| SMILES | protection (% of disease control) |
| --- | --- |
| Cc1nn(C)c(F)c1C(=O)N(Cc1ccc(Oc2ccc(Cl)cc2Cl)cc1)C1CC1 [Example 358, N-cyclopropyl-N-[4-(2,4-dichlorophenoxy)benzyl]-5-fluoro-1,3-dimethyl-1H-pyrazole-4-carboxamide, reference compound] | less than 30% |
| Cn1cc(C(=O)N(Cc2ccc(Oc3ccc(Cl)cc3)cc2)C2CC2)c(C(F)F)n1 [Example 489, N-[4-(4-chlorophenoxy)benzyl]-N-cyclopropyl-3-(difluoromethyl)-1-methyl-1H-pyrazole-4-carboxamide, reference compound] | less than 30% |

From patent US9320277B2, “Fungicide N-cycloalkyl-N-biphenylmethyl-carboxamide derivatives” (BAYER INTELLECTUAL PROPERTY GMBH, priority 2008, dated 2016)
